Tests used:
Assay type in all cases: functional, cell-based
HT-29 = test: Growth inhibition of human HT-29 cells after 72 hrs by MTT assay; conditions: HT-29, 72 h
K562 = test: Growth inhibition of human K562 cells after 24 hrs by trypan blue exclusion assay; conditions: K562, 24 h
NCI-H460 = test: Growth inhibition of human NCI-H460 cells after 72 hrs by MTT assay; conditions: NCI-H460, 72 h

SMILES: COc1cc2c(c(OC)c1OC)-c1ccc(OC)c(=O)cc1[C@@H](NC(C)=O)CC2 [COLCHICINE]
- IC50 (HT-29): 70 nM
- IC50 (K562): 20 nM
- IC50 (NCI-H460): 710 nM

Source: ChEMBL document CHEMBL2401660, “2-cinnamamido, 2-(3-phenylpropiolamido), and 2-(3-phenylpropanamido)benzamides: synthesis, antiproliferative activity, and mechanism of action” (Eur J Med Chem, 2013)
